Experimental data as given in paper PMC8463586.
These are yes or no findings as the source states them, for the method shown. In cells and extracts the contact can be indirect. Some entries that bind do so weakly or less than the wild type. Sequences can lack the tags named with a protein. Values belong to the binder of their own block, whether it stands above or below them.

Columns and labels:
[1] = target: T1, Flag-Diap1 (Drosophila IAP-1) (Drosophila) (UniProt Q24306); experiment: co-IP; 293T cells transfected with Diap1 and Dronc, with or without co-expressed Rdx; IP and immunoblot
T1 sequence: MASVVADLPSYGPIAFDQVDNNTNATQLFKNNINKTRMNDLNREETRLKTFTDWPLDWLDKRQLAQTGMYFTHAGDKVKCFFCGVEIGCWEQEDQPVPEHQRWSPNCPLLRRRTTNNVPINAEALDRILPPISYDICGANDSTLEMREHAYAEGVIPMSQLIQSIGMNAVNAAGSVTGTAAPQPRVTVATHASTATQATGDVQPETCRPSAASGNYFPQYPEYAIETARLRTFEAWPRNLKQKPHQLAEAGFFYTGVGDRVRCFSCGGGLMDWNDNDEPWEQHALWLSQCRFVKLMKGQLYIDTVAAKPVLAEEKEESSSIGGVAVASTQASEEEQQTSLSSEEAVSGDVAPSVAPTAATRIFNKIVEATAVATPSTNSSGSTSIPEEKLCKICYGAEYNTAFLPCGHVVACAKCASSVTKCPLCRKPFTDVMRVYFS

[2] = target: T1, Flag-Diap1 (Drosophila IAP-1) (Drosophila); experiment: co-IP; 293T cells transfected with the tagged constructs, harvested two days later; IP with mouse anti-Flag or mouse anti-Myc, immunoblot
[3] = target: T2, Myc-Dronc (Drosophila Nedd2-like caspase) (Drosophila) (UniProt Q9XYF4); experiment: as above
T2 sequence: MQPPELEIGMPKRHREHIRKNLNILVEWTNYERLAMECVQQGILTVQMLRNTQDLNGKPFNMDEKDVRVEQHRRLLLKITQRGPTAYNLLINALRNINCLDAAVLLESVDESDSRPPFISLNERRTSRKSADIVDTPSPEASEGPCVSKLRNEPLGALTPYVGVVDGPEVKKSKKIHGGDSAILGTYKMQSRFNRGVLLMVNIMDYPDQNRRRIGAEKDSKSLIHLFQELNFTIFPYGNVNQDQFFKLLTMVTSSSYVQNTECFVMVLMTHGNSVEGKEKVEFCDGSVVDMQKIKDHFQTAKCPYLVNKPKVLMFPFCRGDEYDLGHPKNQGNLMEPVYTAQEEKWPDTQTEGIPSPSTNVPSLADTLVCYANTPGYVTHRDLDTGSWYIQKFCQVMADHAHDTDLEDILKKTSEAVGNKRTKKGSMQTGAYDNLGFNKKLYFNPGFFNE

- binding [1]: binds
- binding [2]: binds
B1: Myc-Dronc (Drosophila Nedd2-like caspase) (protein, UniProt Q9XYF4 1-450)
chain: T2 sequence

- binding [3]: binds
B2: Flag-Diap1 (Drosophila IAP-1) (protein, UniProt Q24306 1-438)
chain: T1 sequence
